Experimental data from patent US20070225202A1, “Methods for Identifying Modulators of Active Kit Tyrosine Kinase Receptor” (priority 2003, published 2007).

Tested on: HMC1.1 cells (naturally expressing KITV560G)
Experiment: cells
Conditions: Homo sapiens, 72 h, read-out: IC50, inhibition of proliferation

## Cc1ccc(NC(=O)c2ccc(CN3CCN(C)CC3)cc2)cc1Nc1nccc(-c2cccnc2)n1 [Gleevec]
  IC50: 60 nM
